# Data taken from the supplement of paper PMC8728848.
# Some of the results follow.
# B1: PX14343I-pdi-501-30-501 (Parabacteroides distasonis) (protein)
# chain: SDQYSTETFWKTKEHASAGIMGCYNALKLWRSLHTMEFDMLTANAMPYNEANGTQAIGKGEHLSTTALIGSLWKNCYVGIGRTNTFIANVGGVDMDESEKAKMVGEAKFLRAFYYLSLVDKFGGVPLIIDAPNADEQAELPRNSKEEVVNQIVKDLEEAAAVLPDTYASSDLGRATKGAALALKARTLLYNSRWAEAAQAAKQVMESGVYQLFNDYRHFFSEDNKYNCEVIFDIEAKLPEYPTDYDQNIWRLNRPAPLKELVDTYLCVDGKTIEESPLYDPTRPYENRDPRLLKSIVCIGYPYLGKTITKEDVATTGFGVKKYTSYEDDVTIPLVERSAFNFILIRYAEVLLTYAEAQNEASGPDQSVYDAINQLRRRPDINMPEVPKGLTKDQMREVIRRERRIELTFEGLYYSDILRWKTAEKENNGMMHNYEGIEVVKRSFNPKRDYLWPIPYNQTVLNPNLEQNPNWD
# How the values were obtained:
# Assay in all cases: glycan array binding signal (z-score within array); higher = stronger binding
# Details in all cases: glycan notation: IUPAC condensed, linker removed
# Glc(b1-6)Glc = target: Glc(b1-6)Glc
# Outline: (§1)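 The binding signal is a Z-score computed within each array. Data were drawn from 3228 arrays in the Consortium for Functional Glycomics database, restricted to those with a known protein sequence. Scores were averaged over arrays of the same protein sequence at different concentrations or buffers, and over linkers, and negative values can be taken as non-binding.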
# GlcA(b1-3)Gal = target: GlcA(b1-3)Gal
# Outline: as §1
# GlcA(b1-3)GlcNAc = target: GlcA(b1-3)GlcNAc
# Outline: as §1
# GlcA(b1-6)Gal = target: GlcA(b1-6)Gal
# Outline: as §1
# [1] = target: GlcA3S(b1-3)Gal(b1-4)GlcNAc(b1-2)Man
# Outline: as §1
# [2] = target: GlcA3S(b1-3)Gal(b1-4)GlcNAc(b1-3)Gal(b1-4)Glc
# Outline: as §1
# [3] = target: GlcNAc(a1-3)Gal(b1-4)GlcNAc
# Outline: as §1
# [4] = target: GlcNAc(a1-4)Gal(b1-3)GlcNAc
# Outline: as §1
# [5] = target: GlcNAc(a1-4)Gal(b1-4)GalNAc
# Outline: as §1
# [6] = target: GlcNAc(a1-4)Gal(b1-4)GlcNAc
# Outline: as §1
# [7] = target: GlcNAc(a1-4)Gal(b1-4)GlcNAc(b1-3)Gal(b1-4)Glc
# Outline: as §1
# [8] = target: GlcNAc(a1-4)Gal(b1-4)GlcNAc(b1-3)Gal(b1-4)GlcNAc
# Outline: as §1
# [9] = target: GlcNAc(a1-4)Gal(b1-4)GlcNAc(b1-3)Gal(b1-4)GlcNAc(b1-3)Gal(b1-4)GlcNAc
# Outline: as §1
# [10] = target: GlcNAc(a1-4)Gal(b1-4)GlcNAc(b1-3)Gal(b1-4)[Fuc(a1-3)]GlcNAc(b1-3)Gal(b1-4)[Fuc(a1-3)]GlcNAc
# Outline: as §1
# [11] = target: GlcNAc(a1-6)Gal(b1-4)GlcNAc
# Outline: as §1
# [12] = target: GlcNAc(b1-2)Gal(b1-3)GalNAc
# Outline: as §1
# [13] = target: GlcNAc(b1-2)Man(a1-3)[GlcNAc(b1-2)Man(a1-6)]Man(b1-4)GlcNAc(b1-4)GlcNAc
# Outline: as §1
# [14] = target: GlcNAc(b1-2)Man(a1-3)[GlcNAc(b1-2)Man(a1-6)]Man(b1-4)GlcNAc(b1-4)[Fuc(a1-6)]GlcNAc
# Outline: as §1
# [15] = target: GlcNAc(b1-2)Man(a1-3)[GlcNAc(b1-4)][GlcNAc(b1-2)Man(a1-6)]Man(b1-4)GlcNAc(b1-4)GlcNAc
# Outline: as §1
# [16] = target: GlcNAc(b1-2)Man(a1-3)[GlcNAc(b1-4)][GlcNAc(b1-2)Man(a1-6)]Man(b1-4)GlcNAc(b1-4)[Fuc(a1-6)]GlcNAc
# Outline: as §1
# [17] = target: GlcNAc(b1-2)[GlcNAc(b1-4)]Man(a1-3)[GlcNAc(b1-2)Man(a1-6)]Man(b1-4)GlcNAc(b1-4)GlcNAc
# Outline: as §1
# [18] = target: GlcNAc(b1-2)[GlcNAc(b1-4)]Man(a1-3)[GlcNAc(b1-4)][GlcNAc(b1-2)Man(a1-6)]Man(b1-4)GlcNAc(b1-4)GlcNAc
# Outline: as §1
# [19] = target: GlcNAc(b1-2)[GlcNAc(b1-4)]Man(a1-3)[GlcNAc(b1-4)][GlcNAc(b1-2)[GlcNAc(b1-6)]Man(a1-6)]Man(b1-4)GlcNAc(b1-4)GlcNAc
# Outline: as §1
# [20] = target: GlcNAc(b1-2)[GlcNAc(b1-4)]Man(a1-3)[GlcNAc(b1-4)][GlcNAc(b1-2)[GlcNAc(b1-6)]Man(a1-6)]Man(b1-4)GlcNAc(b1-4)[Fuc(a1-6)]GlcNAc
# Outline: as §1
# [21] = target: GlcNAc(b1-2)[GlcNAc(b1-6)]Man(a1-6)[GlcNAc(b1-2)Man(a1-3)]Man(b1-4)GlcNAc(b1-4)GlcNAc
# Outline: as §1
# [22] = target: GlcNAc(b1-2)[GlcNAc(b1-6)]Man(a1-6)[GlcNAc(b1-2)Man(a1-3)]Man(b1-4)GlcNAc(b1-4)[Fuc(a1-6)]GlcNAc
# Outline: as §1
# [23] = target: GlcNAc(b1-2)[GlcNAc(b1-6)]Man(a1-6)[GlcNAc(b1-4)][GlcNAc(b1-2)Man(a1-3)]Man(b1-4)GlcNAc(b1-4)GlcNAc
# Outline: as §1
# GlcNAc(b1-3)Fuc = target: GlcNAc(b1-3)Fuc
# Outline: as §1
# GlcNAc(b1-3)Gal = target: GlcNAc(b1-3)Gal
# Outline: as §1
# [24] = target: GlcNAc(b1-3)Gal(b1-3)GalNAc
# Outline: as §1
# GlcNAc(b1-3)Gal(b1-4)Glc = target: GlcNAc(b1-3)Gal(b1-4)Glc
# Outline: as §1
# [25] = target: GlcNAc(b1-3)Gal(b1-4)GlcNAc
# Outline: as §1
# [26] = target: GlcNAc(b1-3)Gal(b1-4)GlcNAc(b1-2)Man(a1-3)[GlcNAc(b1-3)Gal(b1-4)GlcNAc(b1-2)Man(a1-6)]Man(b1-4)GlcNAc(b1-4)GlcNAc
# Outline: as §1
# [27] = target: GlcNAc(b1-3)Gal(b1-4)GlcNAc(b1-2)Man(a1-3)[GlcNAc(b1-3)Gal(b1-4)GlcNAc(b1-2)Man(a1-6)]Man(b1-4)GlcNAc(b1-4)[Fuc(a1-6)]GlcNAc
# Outline: as §1
# [28] = target: GlcNAc(b1-3)Gal(b1-4)GlcNAc(b1-2)[GlcNAc(b1-3)Gal(b1-4)GlcNAc(b1-6)]Man(a1-6)[GlcNAc(b1-3)Gal(b1-4)GlcNAc(b1-2)Man(a1-3)]Man(b1-4)GlcNAc(b1-4)GlcNAc
# Outline: as §1
# [29] = target: GlcNAc(b1-3)Gal(b1-4)GlcNAc(b1-3)Gal(b1-4)GlcNAc
# Outline: as §1
# [30] = target: GlcNAc(b1-3)Gal(b1-4)GlcNAc(b1-3)Gal(b1-4)GlcNAc(b1-2)Man(a1-3)[GlcNAc(b1-3)Gal(b1-4)GlcNAc(b1-3)Gal(b1-4)GlcNAc(b1-2)Man(a1-6)]Man(b1-4)GlcNAc(b1-4)GlcNAc
# Outline: as §1
binder,measurement,setting,value
B1,glycan array binding signal (z-score),Glc(b1-6)Glc,-0.768
same,glycan array binding signal (z-score),GlcA(b1-3)Gal,0.102
same,glycan array binding signal (z-score),GlcA(b1-3)GlcNAc,0.786
same,glycan array binding signal (z-score),GlcA(b1-6)Gal,1.09
same,glycan array binding signal (z-score),[1],-0.55
same,glycan array binding signal (z-score),[2],-0.377
same,glycan array binding signal (z-score),[3],-0.157
same,glycan array binding signal (z-score),[4],-0.546
same,glycan array binding signal (z-score),[5],-0.61
same,glycan array binding signal (z-score),[6],-0.204
same,glycan array binding signal (z-score),[7],0.602
same,glycan array binding signal (z-score),[8],-0.88
same,glycan array binding signal (z-score),[9],-0.211
same,glycan array binding signal (z-score),[10],1.69
same,glycan array binding signal (z-score),[11],1.05
same,glycan array binding signal (z-score),[12],0.654
same,glycan array binding signal (z-score),[13],-0.171
same,glycan array binding signal (z-score),[14],0.468
same,glycan array binding signal (z-score),[15],-0.286
same,glycan array binding signal (z-score),[16],-1.08
same,glycan array binding signal (z-score),[17],-0.486
same,glycan array binding signal (z-score),[18],0.48
same,glycan array binding signal (z-score),[19],0.146
same,glycan array binding signal (z-score),[20],-0.084
same,glycan array binding signal (z-score),[21],-0.053
same,glycan array binding signal (z-score),[22],-0.797
same,glycan array binding signal (z-score),[23],-0.645
same,glycan array binding signal (z-score),GlcNAc(b1-3)Fuc,0.489
same,glycan array binding signal (z-score),GlcNAc(b1-3)Gal,0.184
same,glycan array binding signal (z-score),[24],0.325
same,glycan array binding signal (z-score),GlcNAc(b1-3)Gal(b1-4)Glc,-0.466
same,glycan array binding signal (z-score),[25],-0.649
same,glycan array binding signal (z-score),[26],-0.138
same,glycan array binding signal (z-score),[27],4.66
same,glycan array binding signal (z-score),[28],0.557
same,glycan array binding signal (z-score),[29],-0.615
same,glycan array binding signal (z-score),[30],1.15

# Three records drawn at random from those above:
binder,measurement,setting,value
B1,glycan array binding signal (z-score),[12],0.654
same,glycan array binding signal (z-score),[19],0.146
same,glycan array binding signal (z-score),[2],-0.377
